Experimental data reported in patent US20240025965A1 (UNIVERSITEIT TWENTE, published 2024).
No constants are given. Whether binding was seen depends on the method and setting. Some results given as binding are weak or reduced against the parent protein; the word gives no strength.

Tests used:
[1] = molecular target: T1, ITGA11 on human stellate cells (LX2 hepatic stellate cells; primary pancreatic stellate cells) (human) (UniProt Q9UKX5); test: fluorescence microscopy on LX2 cells
T1 sequence (looked up): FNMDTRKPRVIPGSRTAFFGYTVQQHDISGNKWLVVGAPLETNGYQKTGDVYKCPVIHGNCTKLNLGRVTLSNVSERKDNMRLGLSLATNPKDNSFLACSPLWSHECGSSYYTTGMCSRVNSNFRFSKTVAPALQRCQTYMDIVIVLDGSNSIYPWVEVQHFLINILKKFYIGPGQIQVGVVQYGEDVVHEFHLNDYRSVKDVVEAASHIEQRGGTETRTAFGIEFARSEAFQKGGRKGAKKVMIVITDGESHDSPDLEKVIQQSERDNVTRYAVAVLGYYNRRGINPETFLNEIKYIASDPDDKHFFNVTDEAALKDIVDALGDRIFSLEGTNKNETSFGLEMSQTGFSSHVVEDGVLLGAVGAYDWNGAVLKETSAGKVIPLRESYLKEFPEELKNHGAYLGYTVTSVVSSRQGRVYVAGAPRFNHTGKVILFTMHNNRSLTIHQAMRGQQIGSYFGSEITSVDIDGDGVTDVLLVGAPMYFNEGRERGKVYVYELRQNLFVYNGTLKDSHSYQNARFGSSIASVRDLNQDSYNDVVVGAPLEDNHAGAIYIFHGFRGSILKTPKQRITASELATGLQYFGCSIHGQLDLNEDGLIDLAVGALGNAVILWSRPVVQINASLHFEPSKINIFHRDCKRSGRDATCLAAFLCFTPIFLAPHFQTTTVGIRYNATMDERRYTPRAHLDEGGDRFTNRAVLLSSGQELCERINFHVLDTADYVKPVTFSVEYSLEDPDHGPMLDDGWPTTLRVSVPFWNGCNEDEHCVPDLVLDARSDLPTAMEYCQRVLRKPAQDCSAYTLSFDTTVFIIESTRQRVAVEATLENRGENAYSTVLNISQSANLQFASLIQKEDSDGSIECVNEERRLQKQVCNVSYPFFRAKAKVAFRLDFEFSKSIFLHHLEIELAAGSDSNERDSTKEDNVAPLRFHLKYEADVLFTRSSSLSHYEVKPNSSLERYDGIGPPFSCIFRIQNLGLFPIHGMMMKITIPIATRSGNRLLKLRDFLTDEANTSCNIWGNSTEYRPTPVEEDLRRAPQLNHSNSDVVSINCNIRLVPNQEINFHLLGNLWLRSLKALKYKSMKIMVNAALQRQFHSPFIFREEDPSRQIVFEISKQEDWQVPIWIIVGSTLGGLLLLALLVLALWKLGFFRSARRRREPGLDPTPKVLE

[2] = molecular target: T1, ITGA11 on human stellate cells (LX2 hepatic stellate cells; primary pancreatic stellate cells) (human); test: flow cytometry on primary human pancreatic stellate cells
rhIntegrin α11β1 [3] = molecular target: T2, rhIntegrin α11β1 (human, UniProt Q9UKX5 23-1141; P05556 21-728, limits assumed); test: peptide microarray incubated with α11β1, anti-ITGA11 detection
T2 construct: Bought from R&D Systems; also called α11β1 receptor; ITGA11 receptor

[4] = molecular target: T1, ITGA11 on human stellate cells (LX2 hepatic stellate cells; primary pancreatic stellate cells) (human); test: fluorescence microscopy on LX2 cells with and without ITGA11 knockdown
[5] = molecular target: T1, ITGA11 on human stellate cells (LX2 hepatic stellate cells; primary pancreatic stellate cells) (human); test: fluorescence microscopy on LX2 hepatic stellate cells, 20 µM FITC-peptide
[6] = molecular target: T1, ITGA11 on human stellate cells (LX2 hepatic stellate cells; primary pancreatic stellate cells) (human); test: fluorescence microscopy on LX2 cells; shRNA knockdown of ITGA11 gave complete inhibition
[7] = molecular target: T1, ITGA11 on human stellate cells (LX2 hepatic stellate cells; primary pancreatic stellate cells) (human); test: flow cytometry of AXI-I-PEG-FITC on suspended primary human pancreatic stellate cells, 1 hour at 4 °C
[8] = molecular target: T1, ITGA11 on human stellate cells (LX2 hepatic stellate cells; primary pancreatic stellate cells) (human); test: fluorescence microscopy of FITC-labelled AXI-I on LX2 cells with and without shRNA knockdown of ITGA11
[9] = molecular target: T1, ITGA11 on human stellate cells (LX2 hepatic stellate cells; primary pancreatic stellate cells) (human); test: fluorescence microscopy of FITC-labelled peptide on LX2 hepatic stellate cells, with DAPI and phalloidin
rhIntegrin α11β1 [10] = molecular target: T2, rhIntegrin α11β1; test: peptide microarray: peptide fixed by its N-terminus through a PEG linker, incubated with α11β1 receptor (10 µg/ml), anti-ITGA11 antibody and fluorescent secondary antibody, signal of the antibodies alone subtracted
Procedure: Peptide microarray was prepared by conjugating peptides at their N-terminal to a glass slide using a PEG linker. […] For the binding studies, the peptide array was blocked with 3% BSA in TBST for 2 hours. Then the array slide was washed 5 times in TB ST and subsequently incubated with the target receptor (α11β1, 10 μg/ml dissolved in PBS) for 1 hour at 37° C. The slides were washed with TBST and then incubated with primary antibody (1 μg/ml) against ITGA11 for 1 hour at 37° C. Then slides were washed and incubated with fluorescent dye labeled secondary antibodies for 30 minutes. The slides were washed with TBST and water and then dried and scanned with a microarray scanner to detect binding of the peptides. The enlightened spots were analyzed using ImageJ software. To determine the unspecific binding, a peptide array was incubated with only primary and secondary antibodies without the receptor incubation step. Then, the signal of unspecific binding was subtracted from the total binding to calculate specific binding.

Measured: binding

SGLTEWLRWFAS (N-terminus linked to glass slide via PEG linker (microarray)) […]
binds: [1] | [1]; record 2 | [2] | rhIntegrin α11β1 [3] | rhIntegrin α11β1 [3]; record 2 | rhIntegrin α11β1 [3]; record 3 | rhIntegrin α11β1 [3]; record 4 | [4] | [5] | [5]; record 2 | [6] | [7] | [8] | [9] | [9]; record 2 | rhIntegrin α11β1 [10] | rhIntegrin α11β1 [10]; record 2 | rhIntegrin α11β1 [10]; record 3 | rhIntegrin α11β1 [10]; record 4 | rhIntegrin α11β1 [10]; record 5
